PubChem BioAssay AID743121 – NCATS | 2013
Aim: 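Partners whose loss is lethal together with topoisomerase I blockade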 (primary screen). Cells: MDA-MB-231 cells, a human breast cancer line. Reagents: single siRNA against human genes, 20 nM siRNA (0.8 pmol per well). Time to read-out: 120 h (drug added 48 h after transfection, read 72 h later). Treatment: camptothecin 20 nM (about EC30) for 72 h; vehicle 0.1% DMSO in parallel plates. Measurement: 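CellTiter-Glo ATP signal, scaled to control siRNA as percent viability; sensitisation given as log2 of untreated divided by camptothecin-treated viability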. Reading the numbers: log2 vehicle/camptothecin viability: higher = stronger sensitisation to camptothecin; viability with camptothecin and viability without drug: higher = more viable cells. Active means: 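Active genes have an RSA gene-level p-value below 0.001, computed from the ratios of their separate siRNAs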.
The whole screen tested about 26,000 reagents; shown is an unselected part. 167 of them (0.63%) count as active. 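Calls are per gene from RSA p-values that are not deposited; an individual active-marked siRNA can sensitise only weakly.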 The numbers tell different reagents against one gene apart.

gene	reagent no.	log2 vehicle/camptothecin viability	viability with camptothecin (% of control)	viability without drug (% of control)	Outcome
HMGCL	1	-0.0231	37.6	37	inactive
HMGCL	2	0.0054	90.9	91.3	inactive
HMGCL	3	0.111	71.2	76.8	inactive
HMGCL	4	-0.332	82.3	65.4	inactive
RBBP6	1	-0.0349	24	23.4	inactive
RBBP6	2	-0.272	82.1	68	inactive
RBBP6	3	-0.16	70.6	63.2	inactive
RBBP6	4	0.294	18.9	23.1	inactive
IK	1	-0.276	3.72	3.07	inactive
IK	2	-0.0301	28.9	28.3	inactive
IK	3	0.173	5.69	6.41	inactive
IK	4	-1.22	13.6	5.82	inactive
MPP7	1	-0.269	99.4	82.5	inactive
MPP7	2	-0.00623	68.8	68.5	inactive
MPP7	3	-0.3	68.5	55.7	inactive
MPP7	4	0.043	101	104	inactive
GNG8	1	0.308	3.69	4.56	inactive
GNG8	2	-0.195	44.8	39.2	inactive
GNG8	3	-0.324	103	82	inactive
GNG8	4	0.00943	50.7	51	inactive
CASP14	1	0.882	15.6	28.8	inactive
CASP14	2	-0.687	13.8	8.58	inactive
CASP14	3	-0.179	92.3	81.5	inactive
MEPCE	1	0.383	68	88.6	inactive
MEPCE	2	-0.101	62.3	58.1	inactive
MEPCE	3	-0.458	102	74.2	inactive
MEPCE	4	-0.266	77.3	64.2	inactive
VPS11	1	-0.0895	99.2	93.3	inactive
VPS11	2	0.234	35	41.2	inactive
VPS11	3	0.129	93.7	102	inactive
VPS11	4	-0.192	109	95.7	inactive
SBF1	1	-0.197	138	120	inactive
SBF1	2	0.453	43.6	59.7	inactive
SBF1	3	-0.603	100	65.9	inactive
SBF1	4	0.00484	51.9	52.1	inactive

Targets listed so far whose target name starts with R or r:
gene	reagent no.	log2 vehicle/camptothecin viability	viability with camptothecin (% of control)	viability without drug (% of control)	Outcome
RBBP6	1	-0.0349	24	23.4	inactive
RBBP6	2	-0.272	82.1	68	inactive
RBBP6	3	-0.16	70.6	63.2	inactive
RBBP6	4	0.294	18.9	23.1	inactive

Further reagents:
gene	reagent no.	log2 vehicle/camptothecin viability	viability with camptothecin (% of control)	viability without drug (% of control)	Outcome
OAS2	1	0.796	34.9	60.6	inactive
OAS2	2	0.0329	111	113	inactive
OAS2	3	0.0287	59.2	60.4	inactive
OAS2	4	-0.139	40.8	37.1	inactive
SNRK	1	-0.0356	112	109	inactive
SNRK	2	-0.109	58.3	54	inactive
SNRK	3	-0.432	88.3	65.4	inactive
SNRK	4	-0.585	66.3	44.2	inactive
NPFFR2	1	-0.203	93.7	81.4	inactive
NPFFR2	2	0.191	39.2	44.8	inactive
NPFFR2	3	-0.282	86.9	71.4	inactive
NPFFR2	4	-0.108	76.7	71.1	inactive
CPA1	1	-0.0118	98.8	98	inactive
CPA1	2	0.352	85.4	109	inactive
CPA1	3	-0.104	60.9	56.7	inactive
BAGE4	1	-0.555	121	82.1	inactive
BAGE4	2	-0.307	88.4	71.5	inactive
CD226	1	0.113	91	98.4	inactive
CD226	2	-0.0822	75.7	71.5	inactive
CD226	3	-0.342	63	49.7	inactive
CD226	4	-0.632	78.1	50.4	inactive
HDAC4	1	-0.365	65.4	50.8	inactive
HDAC4	2	-0.25	101	84.8	inactive
HDAC4	3	-0.0338	86.8	84.7	inactive
HDAC4	4	-0.333	97.1	77.1	inactive
CYP2A6	1	0.216	49.7	57.7	inactive
CYP2A6	2	-0.476	77.8	56	inactive
CYP2A6	3	-0.0225	83.3	82	inactive
CYP2A6	4	-0.204	67.1	58.3	inactive
IL2RA	1	-0.32	113	90.8	inactive
IL2RA	2	-0.108	81.9	76	inactive
IL2RA	3	0.205	101	117	inactive
IL2RA	4	-0.306	105	84.7	inactive
